Results on eight sequences are retold here after paper PMC7705020.

The exact form of at least one protein or probe is not confirmed. For part of these data: Negatives hold for the conditions tested.

The test system of the first data set is GST. Nature of the data set: EMSA. The following applies: Biyuntian EMSA binding buffer, 30 min; 200-fold unlabeled probe for competition; pH and temperature not stated; recombinant protein; protein details: GST; label: biotin. (In general: In EMSA bound probe runs differently from free probe, usually more slowly.)
Take “TATTATGATTACCTTGAGAATGAAGAAAATAGGTTTA (double strand) [pMdMYB46-SNBE]”: the binding result is on record as “no binding”.

Another data set has as its system GST-MdSND1 (Malus x domestica). Nature of the data set: EMSA. The following applies: Biyuntian EMSA binding buffer, 30 min; 200-fold unlabeled probe for competition; pH and temperature not stated; recombinant protein; protein details: N-terminal GST (pGEX); label: biotin.
For the sequence “AAAGAGTCAAGGCTTTCTTCCTAAGCAAGTAATAATA (double strand) [pMdAREB1B-SNBE (P3)]”, the binding result is listed as “binds”. Same read-out and setting: the result for “AATAAAAAAACATTTTTTATGGACGAAATTGCCCCGG (double strand) [pMdAREB1A-SNBE (P1)]” reads “binds”; that for “ACTTCTATCAACTTTGACATCAAAGCAAGAGCTGCCC (double strand) [pMdRD29A-SNBE (P1)]”, “binds”.

Regarding “ATGATTCATTTTTCTTCACTCACAAGGTAATCATGTAC (double strand) [pMdMYB83B-SNBE]”, the binding result is “binds”. On the same count and under the same terms, with “CACTTGCATTATCTTGAGGGACAAGGATTGTCTGCCC (double strand) [pMdRD22-SNBE (P3)]” the entry was “binds”. “TATTATGATTACCTTGAGAATGAAGAAAATAGGTTTA (double strand) [pMdMYB46-SNBE]”: the binding result was “binds”. On the same count and under the same terms, the result for “TCAGTGTTCAATTCTCCACCACACGGAATTGAACATG (double strand) [pMdDREB2A-SNBE (P2)]” reads “binds”. On the same count and under the same terms, the result for “TCGATTCATTTTTCTTCACTCACAAGGTAATCCTATAT (double strand) [pMdMYB83A-SNBE]” reads “binds”.
